{"source": "PubChem BioAssay AID504784 (Drosophila RNAi Screening Center, 2011)", "assay": "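Genome-wide knock-down for genes giving too much or too little stored lipid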 (primary screen)", "cell system": "Drosophila Kc167 embryonic cells", "knock-down reagent": "long dsRNA against Drosophila genes, about 250 ng dsRNA per well", "timing": "4 days", "treatment": "cells fed 400 µM oleic acid bound to BSA", "measurement": "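Cells imaged and segmented; ratio of lipid droplet area to nuclear area, log-transformed, then normalised as a B-score over the screen; higher means more stored lipid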", "scale": "droplet/nuclear area B-score: higher = more stored lipid (overstorage)", "note": "In all, the deposit lists about 17,000 reagents; shown is a random part of those with a known target gene and a result. 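Each column is one replicate's B-score; the combined score over replicates was not deposited, so single values may mislead.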 Not all columns of the deposit are shown."}
{"target gene": "pav (GeneID 38515)", "dsRNA": "DRSC08730", "droplet/nuclear area B-score, replicate 1": 1.17}
{"target gene": "Sry-alpha (GeneID 43571)", "dsRNA": "DRSC16867", "droplet/nuclear area B-score, replicate 1": 3.39}
{"target gene": "CG16787 (GeneID 37811)", "dsRNA": "DRSC04282", "droplet/nuclear area B-score, replicate 1": 0.103}
{"target gene": "klar (GeneID 38067)", "dsRNA": "DRSC08718", "droplet/nuclear area B-score, replicate 1": -0.307}
{"target gene": "klar (GeneID 38067)", "dsRNA": "DRSC22393", "droplet/nuclear area B-score, replicate 1": 1.08}
{"target gene": "CR31822 (GeneID 10178843)", "dsRNA": "DRSC01510", "droplet/nuclear area B-score, replicate 1": -0.265}
{"target gene": "CG18180 (GeneID 39125)", "dsRNA": "DRSC10304", "droplet/nuclear area B-score, replicate 1": -0.584}
{"target gene": "FER (GeneID 41118)", "dsRNA": "DRSC12735", "droplet/nuclear area B-score, replicate 1": -2.25}
{"target gene": "FER (GeneID 41118)", "dsRNA": "DRSC16673", "droplet/nuclear area B-score, replicate 1": -0.014}
{"target gene": "CG6765 (GeneID 38971)", "dsRNA": "DRSC10706", "droplet/nuclear area B-score, replicate 1": 0.26}
{"target gene": "CG17129 (GeneID 38080)", "dsRNA": "DRSC08508", "droplet/nuclear area B-score, replicate 1": -0.16}
{"target gene": "CG9304 (GeneID 37500)", "dsRNA": "DRSC04538", "droplet/nuclear area B-score, replicate 1": -1.98}
{"target gene": "Nepl4 (GeneID 33889)", "dsRNA": "DRSC03239", "droplet/nuclear area B-score, replicate 1": 0.0217}
{"target gene": "CG14439 (GeneID 31614)", "dsRNA": "DRSC17931", "droplet/nuclear area B-score, replicate 1": -0.583}
{"target gene": "CG31213 (GeneID 42382)", "dsRNA": "DRSC14312", "droplet/nuclear area B-score, replicate 1": -3.36}
{"target gene": "CG31213 (GeneID 42382)", "dsRNA": "DRSC15647", "droplet/nuclear area B-score, replicate 1": 0.408}
{"target gene": "Fad2 (GeneID 44006)", "dsRNA": "DRSC11165", "droplet/nuclear area B-score, replicate 1": 0.617}
{"target gene": "sqz (GeneID 42300)", "dsRNA": "DRSC16980", "droplet/nuclear area B-score, replicate 1": -0.37}
{"target gene": "CG9018 (GeneID 38283)", "dsRNA": "DRSC08618", "droplet/nuclear area B-score, replicate 1": -0.332}
{"target gene": "Slbp (GeneID 43448)", "dsRNA": "DRSC16863", "droplet/nuclear area B-score, replicate 1": -1.09}
{"target gene": "vn (GeneID 38657)", "dsRNA": "DRSC11408", "droplet/nuclear area B-score, replicate 1": 2.08}
{"target gene": "vn (GeneID 38657)", "dsRNA": "DRSC23221", "droplet/nuclear area B-score, replicate 1": 0.27}
{"target gene": "asf1 (GeneID 40141)", "dsRNA": "DRSC11324", "droplet/nuclear area B-score, replicate 1": 0.156}
{"target gene": "CG12065 (GeneID 31798)", "dsRNA": "DRSC17798", "droplet/nuclear area B-score, replicate 1": -0.715}
{"target gene": "CG12065 (GeneID 31798)", "dsRNA": "DRSC17799", "droplet/nuclear area B-score, replicate 1": 0.242}

Records listed so far whose gene name starts with V or v (2):
{"target gene": "vn (GeneID 38657)", "dsRNA": "DRSC11408", "droplet/nuclear area B-score, replicate 1": 2.08}
{"target gene": "vn (GeneID 38657)", "dsRNA": "DRSC23221", "droplet/nuclear area B-score, replicate 1": 0.27}

Additional entries follow.
{"target gene": "RhoGAP100F (GeneID 43758)", "dsRNA": "DRSC15409", "droplet/nuclear area B-score, replicate 1": -0.255}
{"target gene": "Pkcdelta (GeneID 32191)", "dsRNA": "DRSC19356", "droplet/nuclear area B-score, replicate 1": 1.82}
{"target gene": "Pkcdelta (GeneID 32191)", "dsRNA": "DRSC19399", "droplet/nuclear area B-score, replicate 1": 1.38}
{"target gene": "Orct (GeneID 42891)", "dsRNA": "DRSC16777", "droplet/nuclear area B-score, replicate 1": 2.32}
{"target gene": "CG10602 (GeneID 35146)", "dsRNA": "DRSC02075", "droplet/nuclear area B-score, replicate 1": 0.0138}
{"target gene": "Kank (GeneID 36668)", "dsRNA": "DRSC05513", "droplet/nuclear area B-score, replicate 1": -0.639}
{"target gene": "Kank (GeneID 36668)", "dsRNA": "DRSC05933", "droplet/nuclear area B-score, replicate 1": 0.17}
{"target gene": "eEF1gamma (GeneID 44791)", "dsRNA": "DRSC16659", "droplet/nuclear area B-score, replicate 1": 1.05}
{"target gene": "CG15236 (GeneID 35595)", "dsRNA": "DRSC04970", "droplet/nuclear area B-score, replicate 1": 0.163}
{"target gene": "CG15236 (GeneID 35595)", "dsRNA": "DRSC21396", "droplet/nuclear area B-score, replicate 1": -0.483}
{"target gene": "CG15236 (GeneID 35595)", "dsRNA": "DRSC23025", "droplet/nuclear area B-score, replicate 1": 2.84}
{"target gene": "siz (GeneID 40327)", "dsRNA": "DRSC11622", "droplet/nuclear area B-score, replicate 1": 0.208}
{"target gene": "siz (GeneID 40327)", "dsRNA": "DRSC11689", "droplet/nuclear area B-score, replicate 1": 1.82}
{"target gene": "siz (GeneID 40327)", "dsRNA": "DRSC11690", "droplet/nuclear area B-score, replicate 1": 0.508}
{"target gene": "Sap130 (GeneID 39455)", "dsRNA": "DRSC09680", "droplet/nuclear area B-score, replicate 1": 0.00168}
